Measurements reported in the supplement of paper PMC4749390.
Where a name gives a salt, the structure may show the parent alone. This is one part of the list. This data set is noisy: repeats of one test often differ as much as different tests do.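 JEG3 cells stably express tetracycline-inducible wild-type human LRH-1, a highly sumoylated nuclear receptor. SUMO-sensitive transcripts APOC3 and MUC1, increased by SUMO-deficient LRH-1 or UBC9 knockdown, were quantified by RT-qPCR relative to TBP and DMSO controls. Primary hits had robust Z-scores above +2 or below -2, before toxicity and TBP filtering.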

These compounds were tested on JEG3 expressing hLRH-1 (assay: MUC1 transcript change (ddCt vs TBP and DMSO), Z-score over library; higher = higher MUC1 expression). Conditions: 10 µM; time (hr): 24.

Compared with `NC(=O)NC1NC(=O)NC1=O` (configuration not stated) [allantoin], `O=C1CCC(N2C(=O)c3ccccc3C2=O)C(=O)N1` (configuration not stated) [thalidomide] is higher in “MUC1 transcript change (Z-score)” value: -0.351 for the first, -0.331 for the second.

Going from `CNC(=O)c1c(I)c(NC(C)=O)c(I)c(C(=O)O)c1I` [iothalamic acid] to `CC(=O)Nc1ccc(C(=O)O)cc1` [acedoben], the “MUC1 transcript change (Z-score)” value falls from 0.677 to 0.479.

First: CC(=O)Oc1cc2c(s1)CCN([C@H](C(=O)C1CC1)c1ccccc1F)C2 [prasugrel]
Second: CCN1CCN(c2cc3c(cc2F)c(=O)c(C(=O)O)cn3C2CC2)CC1 [enrofloxacin]
The “MUC1 transcript change (Z-score)” value of the first is lower: -2.05 for the first, 0.39 for the second.

Going from `CCN(CC)CCNC(=O)COc1ccc(OC)cc1` [mefexamide] to `CCOc1ccc(NC(=O)CC(C)O)cc1` (configuration not stated) [bucetin], the “MUC1 transcript change (Z-score)” value rises from -1.21 to -0.042.

First: CC1(C)S[C@@H]2[C@H](NC(=O)Cc3ccccc3)C(=O)N2[C@H]1C(=O)O [penicillin g potassium]
Second: CCOC(=O)[C@H](CCc1ccccc1)N[C@@H](C)C(=O)N1[C@H](C(=O)O)C[C@@H]2CCC[C@@H]21 [ramipril]
The “MUC1 transcript change (Z-score)” value of the first is lower: -0.584 for the first, 0.927 for the second.

Going from `Cc1cccc(Nc2ccccc2C(=O)O)c1C` [mefenamic acid] to `Cc1c(Nc2ncccc2C(=O)O)cccc1C(F)(F)F` [flunixin meglumine], the “MUC1 transcript change (Z-score)” value rises from -0.822 to -0.628.

Compared with `CC(=O)OCC1=C(C(=O)O)N2C(=O)[C@@H](NC(=O)Cc3cccs3)[C@H]2SC1` [cephalothin sodium], `CC(C)(O/N=C(\C(=O)N[C@@H]1C(=O)N2C(C(=O)O)=C(C[n+]3ccccc3)CS[C@H]12)c1csc(N)n1)C(=O)O` [ceftazidime] is higher in “MUC1 transcript change (Z-score)” value: -1.37 for the first, 0.888 for the second.

Going from `CC(=O)c1ccc2c(c1)Sc1ccccc1N2CCCN1CCN(CCO)CC1` [acetophenazine maleate] to `O=C(CCCN1CCC(O)(c2ccc(Cl)cc2)CC1)c1ccc(F)cc1` [Haloperidol], the “MUC1 transcript change (Z-score)” value rises from -0.436 to 0.318.

First: CC(N)C(=O)OC(C)(C)Cc1ccc(Cl)cc1 (configuration not stated) [Alaproclate hydrochloride]
Second: CC(C)(C)C(=O)C(Oc1ccc(Cl)cc1)n1ccnc1 (configuration not stated) [climbazole]
The “MUC1 transcript change (Z-score)” value of the first is lower: -0.202 for the first, 0.179 for the second.

Going from `CCCc1cc(C(N)=S)ccn1` [protionamide] to `NCCc1ccc(O)c(O)c1` [Dopamine hydrochloride], the “MUC1 transcript change (Z-score)” value falls from 0.112 to -0.259.

First: CN1C(=O)CC(C)(c2ccccc2)C1=O (configuration not stated) [methsuximide]
Second: CCCCC1C(=O)N(c2ccccc2)N(c2ccccc2)C1=O [Phenylbutazone]
The “MUC1 transcript change (Z-score)” value of the first is higher: -0.0993 for the first, -0.203 for the second.

Going from `Cc1cc(O)nc(S)n1` [methylthiouracil] to `O=c1oc2cc(O)ccc2s1` [thioxolone], the “MUC1 transcript change (Z-score)” value falls from 0.269 to -0.346.

Going from `CC(C)NCC(O)c1cc(O)cc(O)c1` (configuration not stated) [metaproterenol] to `CC(C)NCC(O)COc1cccc2[nH]ccc12` (configuration not stated) [Pindolol], the “MUC1 transcript change (Z-score)” value rises from 0.193 to 0.381.

First: Cc1nc2ccccc2n1Cc1ccc(Cl)cc1 [chlormidazole]
Second: COc1ccc(-n2nc(CCC(=O)N(C)O)cc2-c2ccc(Cl)cc2)cc1 [tepoxalin]
The “MUC1 transcript change (Z-score)” value of the first is lower: -1.18 for the first, -0.6 for the second.

Compared with `CC(=O)OCC[N+](C)(C)C` [acetylcholine], `CC(=O)OCC(COC(C)=O)OC(C)=O` [triacetin] is lower in “MUC1 transcript change (Z-score)” value: 0.483 for the first, 0.295 for the second.

Compared with `OCCN1C[C@H](O)[C@@H](O)[C@H](O)[C@H]1CO` [miglitol], `O[C@H]1[C@H](O)[C@@H](O)[C@H](O)[C@@H](O)[C@H]1O` [inositol] is higher in “MUC1 transcript change (Z-score)” value: 0.797 for the first, 1.16 for the second.

Going from `O=C(O)c1ccccc1C(=O)Nc1ccc(S(=O)(=O)Nc2nccs2)cc1` [phthalylsulfathiazole] to `O=C(O)CCC(=O)c1ccc(-c2ccccc2)cc1` [fenbufen], the “MUC1 transcript change (Z-score)” value rises from -0.317 to 0.39.

Compared with `CC/C=C\C/C=C\C/C=C\C/C=C\C/C=C\CCCC(=O)OCC` [omega-3-acid esters (epa shown)], `CC/C=C\C/C=C\C/C=C\C/C=C\C/C=C\C/C=C\CCC(=O)O` [doconexent] is lower in “MUC1 transcript change (Z-score)” value: -0.652 for the first, -0.685 for the second.

Going from `CO[C@@]1(NC(=O)C(C(=O)O)c2ccc(O)cc2)C(=O)N2C(C(=O)O)=C(CSc3nnnn3C)CO[C@@H]21` (some centres not stated) [moxalactam disodium] to `CC1(C)OC(=O)C(OCC2CC2)=C1c1ccc(S(C)(=O)=O)cc1` [firocoxib], the “MUC1 transcript change (Z-score)” value rises from -0.161 to 0.693.

Compared with `CC1=C(/C=C/C(C)=C/C=C/C(C)=C\C(=O)O)C(C)(C)CCC1` [isotretinon], `CC1=C(/C=C/C(C)=C/C=C/C(C)=C/C(=O)O)C(C)(C)CCC1` [tretinon] is higher in “MUC1 transcript change (Z-score)” value: -1.73 for the first, -1.6 for the second.

Going from `COc1c(C)c2c(c(O)c1C/C=C(\C)CCC(=O)OCCN1CCOCC1)C(=O)OC2` [mycophenolate mofetil] to `CCc1c2c(nc3ccc(OC(=O)N4CCC(N5CCCCC5)CC4)cc13)-c1cc3c(c(=O)n1C2)COC(=O)[C@]3(O)CC` [irinotecan hydrochloride], the “MUC1 transcript change (Z-score)” value falls from 1.2 to -0.319.

Going from `Nc1nc(O)c2ncn(CCC(CO)CO)c2n1` [penciclovir] to `NC(CO)C(=O)NNCc1ccc(O)c(O)c1O` (configuration not stated) [Benserazide hydrochloride], the “MUC1 transcript change (Z-score)” value rises from -0.553 to 0.523.

Going from `COc1ccc(CC2c3cc(OC)c(OC)cc3CC[N+]2(C)CCC(=O)OCCCCCOC(=O)CC[N+]2(C)CCc3cc(OC)c(OC)cc3C2Cc2ccc(OC)c(OC)c2)cc1OC` (configuration not stated) [atracurium besylate] to `CCOc1ccc(Cc2nccc3cc(OCC)c(OCC)cc23)cc1OCC` [ethaverine hydrochloride], the “MUC1 transcript change (Z-score)” value falls from 0.188 to -0.88.

Compared with `C#C[C@]1(OC(C)=O)CCC2C3CCC4=C/C(=N/O)CCC4C3CC[C@@]21CC` (some centres not stated) [norgestimate], `C#C[C@]1(O)CC[C@H]2[C@@H]3CCC4=Cc5oncc5C[C@]4(C)[C@H]3CC[C@@]21C` [danazol] is lower in “MUC1 transcript change (Z-score)” value: 0.846 for the first, -0.14 for the second.

Compared with `C[C@H]1O[C@H](O[C@H]2[C@H](O)[C@@H](O)[C@@H](O[C@H]3[C@H](O)[C@@H](O)C(O)O[C@@H]3CO)O[C@@H]2CO)[C@H](O)[C@@H](O)[C@@H]1N[C@H]1C=C(CO)[C@@H](O)[C@H](O)[C@H]1O` (some centres not stated) [acarbose], `NC[C@H]1O[C@H](OC2[C@@H](N)C[C@@H](N)[C@H](O[C@H]3O[C@H](CO)[C@@H](O)[C@H](N)[C@H]3O)[C@H]2O)[C@H](O)[C@@H](O)[C@@H]1O` (some centres not stated) [kanamycin sulfate] is higher in “MUC1 transcript change (Z-score)” value: -0.616 for the first, 0.374 for the second.

Compared with `CO/C(O)=C1\C(C)=NC(C)=C(C(=O)OCC(C)C)C1c1ccccc1[N+](=O)[O-]` (configuration not stated) [nisoldipine], `CC(C)[N+](C)(CCOC(=O)C1c2ccccc2Oc2ccccc21)C(C)C` [propantheline bromide] is lower in “MUC1 transcript change (Z-score)” value: 1.48 for the first, -0.659 for the second.

Going from `CN[C@H]1CC[C@@H](c2ccc(Cl)c(Cl)c2)c2ccccc21` [sertraline hydrochloride] to `Fc1ccc([C@@H]2CCNC[C@H]2COc2ccc3c(c2)OCO3)cc1` [paroxetine hydrochloride], the “MUC1 transcript change (Z-score)” value falls from 1.47 to -0.512.

First: Cn1c(=O)c2nc[nH]c2n(C)c1=O [Aminophylline]
Second: Cn1c(=O)c2c(ncn2CC2OCCO2)n(C)c1=O [doxofylline]
The “MUC1 transcript change (Z-score)” value of the first is lower: 0.672 for the first, 1.17 for the second.

First: CCn1cc(C(=O)O)c(=O)c2cc(F)c(N3CCNCC3)nc21 [enoxacin]
Second: O=C(COc1ccc(Cl)cc1)N1CCN(Cc2ccc3c(c2)OCO3)CC1 [fipexide hydrochloride]
The “MUC1 transcript change (Z-score)” value of the first is higher: 1.34 for the first, 0.604 for the second.

Compared with `NCC[C@H](O)C(=O)N[C@@H]1C[C@H](N)[C@@H](O[C@H]2O[C@H](CN)[C@@H](O)[C@H](O)[C@H]2O)[C@H](O)[C@H]1O[C@H]1O[C@H](CO)[C@@H](O)[C@H](N)[C@H]1O` [amikacin sulfate], `CCC[C@@H]1C[C@@H](C(=O)N[C@@H]([C@H]2O[C@H](SC)[C@H](O)[C@@H](O)[C@H]2O)[C@@H](C)O)N(C)C1` [lincomycin hydrochloride] is lower in “MUC1 transcript change (Z-score)” value: 0.959 for the first, 0.654 for the second.

Compared with `O=C1c2c(O)cccc2Cc2cccc(O)c21` [anthralin], `O=C1C(O)=C(O)C(=O)C(O)=C1O` [tetroquinone] is lower in “MUC1 transcript change (Z-score)” value: 1.3 for the first, 0.421 for the second.

Compared with `C[C@]12C=CC(=O)C=C1CCC1C2[C@@H](O)C[C@@]2(C)C1CC[C@]2(O)C(=O)CO` (some centres not stated) [prednisolone], `CC(C)(C)NC(=O)[C@H]1CC[C@H]2[C@@H]3CC[C@H]4NC(=O)C=C[C@]4(C)[C@H]3CC[C@]12C` [finasteride] is higher in “MUC1 transcript change (Z-score)” value: -0.551 for the first, -0.486 for the second.

Compared with `C[C@H](CS)C(=O)N1CCC[C@H]1C(=O)O` [Captopril], `C=C(CC)C(=O)c1ccc(OCC(=O)O)c(Cl)c1Cl` [ethacrynic acid] is lower in “MUC1 transcript change (Z-score)” value: -0.338 for the first, -0.501 for the second.

Going from `Cc1ccsc1/C=C/C1=NCCCN1C` [morantel citrate] to `COc1ccc2[nH]c(S(=O)Cc3ncc(C)c(OC)c3C)nc2n1` (configuration not stated) [tenatoprazole], the “MUC1 transcript change (Z-score)” value falls from 0.595 to -0.173.

Going from `Oc1nc2ccccc2n1C1CCN(CCCC(c2ccc(F)cc2)c2ccc(F)cc2)CC1` [Pimozide] to `CN(CCOc1ccc(CC2SC(=O)NC2=O)cc1)c1ccccn1` (configuration not stated) [rosiglitazone], the “MUC1 transcript change (Z-score)” value rises from -0.727 to -0.439.

Going from `CC1OC(O[C@H]2/C=C/C=C/C=C/C=C/C=C/C=C/C=C/[C@H](C)[C@@H](O)[C@@H](C)[C@H](C)OC(=O)CC(O)CC(O)CCC(O)C(O)CC(O)C[C@]3(O)C[C@H](O)C(C(=O)O)C(C2)O3)C(O)[C@H](N)C1O` (some centres not stated) [amphotericin b] to `C=C1CC[C@H](O)C/C1=C/C=C1\CCC[C@]2(C)[C@@H]([C@H](C)/C=C/[C@H](C)C(C)C)CC[C@@H]12` [ergocalciferol], the “MUC1 transcript change (Z-score)” value rises from 0.808 to 0.916.

Going from `CCN(CC)CCOCCOC(=O)C1(c2ccccc2)CCCC1` [Carbetapentane citrate] to `CCN(CC)CCNc1ccc(CO)c2sc3ccccc3c(=O)c12` [hycanthone], the “MUC1 transcript change (Z-score)” value falls from 0.648 to -0.871.

First: CC(C)(C)CC(C)(C)c1ccc(OCCOCC[N+](C)(C)Cc2ccccc2)cc1 [benzethonium chloride]
Second: N=C(N)Nc1nc(CSCCC(=N)NS(N)(=O)=O)cs1 [famotidine]
The “MUC1 transcript change (Z-score)” value of the first is higher: 1.91 for the first, 0.761 for the second.

For `CC12CC3CC(C)(C1)CC(N)(C3)C2` [Memantine hydrochloride], the “MUC1 transcript change (Z-score)” value was 0.593.
